# In PMC6071992:
# T1: mouse TBX18 protein fused to a N-terminal triple FLAG tag followed by a biotinylation signal peptide (mouse) (UniProt Q9EPZ6)
# T1 sequence (chain, biotinylated on the biotinylation signal peptide by co-expressed BirA): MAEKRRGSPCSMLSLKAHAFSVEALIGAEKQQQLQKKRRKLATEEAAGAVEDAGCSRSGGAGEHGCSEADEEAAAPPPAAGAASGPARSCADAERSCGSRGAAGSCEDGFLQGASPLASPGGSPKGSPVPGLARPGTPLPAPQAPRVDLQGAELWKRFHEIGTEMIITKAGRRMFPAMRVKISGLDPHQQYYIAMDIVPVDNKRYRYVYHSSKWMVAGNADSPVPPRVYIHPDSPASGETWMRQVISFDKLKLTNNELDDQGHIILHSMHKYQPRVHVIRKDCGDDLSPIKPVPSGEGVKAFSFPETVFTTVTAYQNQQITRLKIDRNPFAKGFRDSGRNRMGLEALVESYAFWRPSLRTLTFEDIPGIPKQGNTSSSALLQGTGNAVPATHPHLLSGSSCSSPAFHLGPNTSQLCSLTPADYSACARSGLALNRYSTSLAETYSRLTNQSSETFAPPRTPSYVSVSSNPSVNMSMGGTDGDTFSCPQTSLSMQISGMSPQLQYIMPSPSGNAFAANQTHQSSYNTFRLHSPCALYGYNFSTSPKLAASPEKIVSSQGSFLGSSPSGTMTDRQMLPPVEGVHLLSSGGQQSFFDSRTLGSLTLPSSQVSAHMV
# B1: SYBU (protein, UniProt Q9NX95 1-663)
# chain: MGPLRESKKEHRVQHHDKEISRSRIPRLILRPHMPQQQHKVSPASESPFSEEESREFNPSSSGRSARTVSSNSFCSDDTGCPSSQSVSPVKTPSDAGNSPIGFCPGSDEGFTRKKCTIGMVGEGSIQSSRYKKESKSGLVKPGSEADFSSSSSTGSISAPEVHMSTAGSKRSSSSRNRGPHGRSNGASSHKPGSSPSSPREKDLLSMLCRNQLSPVNIHPSYAPSSPSSSNSGSYKGSDCSPIMRRSGRYMSCGENHGVRPPNPEQYLTPLQQKEVTVRHLKTKLKESERRLHERESEIVELKSQLARMREDWIEEECHRVEAQLALKEARKEIKQLKQVIETMRSSLADKDKGIQKYFVDINIQNKKLESLLQSMEMAHSGSLRDELCLDFPCDSPEKSLTLNPPLDTMADGLSLEEQVTGEGADRELLVGDSIANSTDLFDEIVTATTTESGDLELVHSTPGANVLELLPIVMGQEEGSVVVERAVQTDVVPYSPAISELIQSVLQKLQDPCPSSLASPDESEPDSMESFPESLSALVVDLTPRNPNSAILLSPVETPYANVDAEVHANRLMRELDFAACVEERLDGVIPLARGGVVRQYWSSSFLVDLLAVAAPVVPTVLWAFSTQRGGTDPVYNIGALLRGCCVVALHSLRRTAFRIKT
# B2: NCOA5 (protein, UniProt Q9HCD5 1-579)
# chain: MNTAPSRPSPTRRDPYGFGDSRDSRRDRSPIRGSPRREPRDGRNGRDARDSRDIRDPRDLRDHRHSRDLRDHRDSRSVRDVRDVRDLRDFRDLRDSRDFRDQRDPMYDRYRDMRDSRDPMYRREGSYDRYLRMDDYCRRKDDSYFDRYRDSFDGRGPPGPESQSRAKERLKREERRREELYRQYFEEIQRRFDAERPVDCSVIVVNKQTKDYAESVGRKVRDLGMVVDLIFLNTEVSLSQALEDVSRGGSPFAIVITQQHQIHRSCTVNIMFGTPQEHRNMPQADAMVLVARNYERYKNECREKEREEIARQAAKMADEAILQERERGGPEEGVRGGHPPAIQSLINLLADNRYLTAEETDKIINYLRERKERLMRSSTDSLPGPISRQPLGATSGASLKTQPSSQPLQSGQVLPSATPTPSAPPTSQQELQAKILSLFNSGTVTANSSSASPSVAAGNTPNQNFSTAANSQPQQRSQASGNQPPSILGQGGSAQNMGPRPGAPSQGLFGQPSSRLAPASNMTSQRPVSSTGINFDNPSVQKALDTLIQSGPALSHLVSQTTAQMGQPQAPMGSYQRHY
# B3: GAR1 (protein, UniProt Q9NY12 1-217)
# chain: MSFRGGGRGGFNRGGGGGGFNRGGSSNHFRGGGGGGGGGNFRGGGRGGFGRGGGRGGFNKGQDQGPPERVVLLGEFLHPCEDDIVCKCTTDENKVPYFNAPVYLENKEQIGKVDEIFGQLRDFYFSVKLSENMKASSFKKLQKFYIDPYKLLPLQRFLPRPPGEKGPPRGGGRGGRGGGRGGGGRGGGRGGGFRGGRGGGGGGFRGGRGGGFRGRGH
# B4: CCDC39 (protein, UniProt Q9UFE4 1-941)
# chain: MSSEFLAELHWEDGFAIPVANEENKLLEDQLSKLKDERASLQDELREYEERINSMTSHFKNVKQELSITQSLCKARERETESEEHFKAIAQRELGRVKDEIQRLENEMASILEKKSDKENGIFKATQKLDGLKCQMNWDQQALEAWLEESAHKDSDALTLQKYAQQDDNKIRALTLQLERLTLECNQKRKILDNELTETISAQLELDKAAQDFRKIHNERQELIKQWENTIEQMQKRDGDIDNCALELARIKQETREKENLVKEKIKFLESEIGNNTEFEKRISVADRKLLKCRTAYQDHETSRIQLKGELDSLKATVNRTSSDLEALRKNISKIKKDIHEETARLQKTKNHNEIIQTKLKEITEKTMSVEEKATNLEDMLKEEEKDVKEVDVQLNLIKGVLFKKAQELQTETMKEKAVLSEIEGTRSSLKHLNHQLQKLDFETLKQQEIMYSQDFHIQQVERRMSRLKGEINSEEKQALEAKIVELRKSLEEKKSTCGLLETQIKKLHNDLYFIKKAHSKNSDEKQSLMTKINELNLFIDRSEKELDKAKGFKQDLMIEDNLLKLEVKRTREMLHSKAEEVLSLEKRKQQLYTAMEERTEEIKVHKTMLASQIRYVDQERENISTEFRERLSKIEKLKNRYEILTVVMLPPEGEEEKTQAYYVIKAAQEKEELQREGDCLDAKINKAEKEIYALENTLQVLNSCNNNYKQSFKKVTPSSDEYELKIQLEEQKRAVDEKYRYKQRQIRELQEDIQSMENTLDVIEHLANNVKEKLSEKQAYSFQLSKETEEQKPKLERVTKQCAKLTKEIRLLKDTKDETMEEQDIKLREMKQFHKVIDEMLVDIIEENTEIRIILQTYFQQSGLELPTASTKGSRQSSRSPSHTSLSARSSRSTSTSTSQSSIKVLELKFPASSSLVGSPSRPSSASSSSSNVKSKKSSK
# B5: SBNO2 (protein, UniProt Q9Y2G9 1-1366)
# chain: MLAVGPAMDRDYPQHEPPPAGSLLYSPPPLQSAMLHCPYWNTFSLPPYPAFSSDSRPFMSSASFLGSQPCPDTSYAPVATASSLPPKTCDFAQDSSYFEDFSNISIFSSSVDSLSDIVDTPDFLPADSLNQVSTIWDDNPAPSTHDKLFQLSRPFAGFEDFLPSHSTPLLVSYQEQSVQSQPEEEDEAEEEEAEELGHTETYADYVPSKSKIGKQHPDRVVETSTLSSVPPPDITYTLALPSDSGALSALQLEAITYACQQHEVLLPSGQRAGFLIGDGAGVGKGRTVAGVILENHLRGRKKALWFSVSNDLKYDAERDLRDIEATGIAVHALSKIKYGDTTTSEGVLFATYSALIGESQAGGQHRTRLRQILDWCGEAFEGVIVFDECHKAKNAGSTKMGKAVLDLQNKLPLARVVYASATGASEPRNMIYMSRLGIWGEGTPFRNFEEFLHAIEKRGVGAMEIVAMDMKVSGMYIARQLSFSGVTFRIEEIPLAPAFECVYNRAALLWAEALNVFQQAADWIGLESRKSLWGQFWSAHQRFFKYLCIAAKVRRLVELAREELARDKCVVIGLQSTGEARTREVLGENDGHLNCFVSAAEGVFLSLIQKHFPSTKRKRDRGAGSKRKRRPRGRGAKAPRLACETAGVIRISDDSSTESDPGLDSDFNSSPESLVDDDVVIVDAVGLPSDDRGPLCLLQRDPHGPGVLERVERLKQDLLDKVRRLGRELPVNTLDELIDQLGGPQRVAEMTGRKGRVVSRPDGTVAFESRAEQGLSIDHVNLREKQRFMSGEKLVAIISEASSSGVSLQADRRVQNQRRRVHMTLELPWSADRAIQQFGRTHRSNQVSAPEYVFLISELAGERRFASIVAKRLESLGALTHGDRRATESRDLSKYNFENKYGTRALHCVLTTILSQTENKVPVPQGYPGGVPTFFRDMKQGLLSVGIGGRESRNGCLDVEKDCSITKFLNRILGLEVHKQNALFQYFSDTFDHLIEMDKREGKYDMGILDLAPGIEEIYEESQQVFLAPGHPQDGQVVFYKISVDRGLKWEDAFAKSLALTGPYDGFYLSYKVRGNKPSCLLAEQNRGQFFTVYKPNIGRQSQLEALDSLRRKFHRVTAEEAKEPWESGYALSLTHCSHSAWNRHCRLAQEGKDCLQGLRLRHHYMLCGALLRVWGRIAAVMADVSSSSYLQIVRLKTKDRKKQVGIKIPEGCVRRVLQELRLMDADVKRRQAPALGCPAPPAPRPLALPCGPGEVLDLTYSPPAEAFPPPPHFSFPAPLSLDAGPGVVPLGTPDAQADPAALAHQGCDINFKEVLEDMLRSLHAGPPSEGALGEGAGAGGAAGGGPERQSVIQFSPPFPGAQAPL
# B6: B9D2 (protein, UniProt Q9BPU9 1-175)
# chain: MAEVHVIGQIIGASGFSESSLFCKWGIHTGAAWKLLSGVREGQTQVDTPQIGDMAYWSHPIDLHFATKGLQGWPRLHFQVWSQDSFGRCQLAGYGFCHVPSSPGTHQLACPTWRPLGSWREQLARAFVGGGPQLLHGDTIYSGADRYRLHTAAGGTVHLEIGLLLRNFDRYGVEC
# Target: T1, mouse TBX18 protein fused to a N-terminal triple FLAG tag followed by a biotinylation signal peptide (mouse)
# Assay: affinity purification with mass spectrometry; tandem affinity purification of 3xFLAG-BioTag-TBX18 from nuclear extracts of transfected 293 cells (anti-FLAG M2 on Protein A agarose, 3xFLAG peptide elution, then Strep-Tactin Superflow), SDS-PAGE, LC-MS; three independent experiments against a mock control without exogenous TBX18
row,binding,Binder
1,binds,B1
2,binds,B2
3,binds,B3
4,binds,B4
5,binds,B5
6,binds,B6

# These are yes or no findings as the source states them, for the method shown. Binding seen in cells or lysates may run through a third protein. Here binding means that the protein was enriched with, or labelled near, the bait; the list need not be complete. Where a sequence is shown, tags or fusion partners need not be part of it.
